Assay results from paper PMC7862700.
This is a selection; strong and weak results do not stand in their true shares. At the low end of the ranking, values are background and their order means little.

Legend:
Experiment in all cases: DAPPL (digital affinity profiling via proximity ligation, sequencing)
Conditions in all cases: 10 mM Tris-HCl pH 7.5, 50 mM NaCl, 1 mM DTT, 4% glycerol, room temperature, 30 min; GST-TFs on glutathione beads, 16-mer random dsDNA library, 0.1% …; high values mean tight binding; double strand, one strand shown; scale: fold enrichment (6-mer frequency, TF over GST control)
[1] = biological target: T1, ELK1 (UniProt P19419)
T1 sequence: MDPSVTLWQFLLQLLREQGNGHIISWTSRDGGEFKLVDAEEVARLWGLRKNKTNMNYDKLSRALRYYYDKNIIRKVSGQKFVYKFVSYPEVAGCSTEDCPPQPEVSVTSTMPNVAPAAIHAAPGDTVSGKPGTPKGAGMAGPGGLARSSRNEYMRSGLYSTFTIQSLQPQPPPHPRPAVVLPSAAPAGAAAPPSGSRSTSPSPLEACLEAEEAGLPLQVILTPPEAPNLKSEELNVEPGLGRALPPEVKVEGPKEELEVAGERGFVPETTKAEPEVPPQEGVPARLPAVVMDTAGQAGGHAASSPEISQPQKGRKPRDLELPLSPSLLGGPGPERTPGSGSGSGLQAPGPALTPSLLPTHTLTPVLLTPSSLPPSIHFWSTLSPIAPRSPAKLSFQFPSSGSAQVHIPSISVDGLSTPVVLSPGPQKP

[2] = biological target: T2, ELK3 (UniProt P41970)
T2 sequence: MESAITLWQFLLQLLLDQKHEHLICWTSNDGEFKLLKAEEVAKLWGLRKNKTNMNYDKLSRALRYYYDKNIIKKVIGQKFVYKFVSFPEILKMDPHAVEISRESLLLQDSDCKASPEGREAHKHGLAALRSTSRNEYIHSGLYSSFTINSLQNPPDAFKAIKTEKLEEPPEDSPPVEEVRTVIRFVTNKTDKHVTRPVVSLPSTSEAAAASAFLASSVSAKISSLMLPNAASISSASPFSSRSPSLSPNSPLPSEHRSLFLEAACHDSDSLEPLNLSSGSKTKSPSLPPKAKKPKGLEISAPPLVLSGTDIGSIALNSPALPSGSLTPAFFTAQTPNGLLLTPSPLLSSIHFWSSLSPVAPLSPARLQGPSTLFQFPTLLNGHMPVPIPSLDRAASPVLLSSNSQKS

[3] = biological target: T3, SPIC (UniProt Q8N5J4)
T3 sequence: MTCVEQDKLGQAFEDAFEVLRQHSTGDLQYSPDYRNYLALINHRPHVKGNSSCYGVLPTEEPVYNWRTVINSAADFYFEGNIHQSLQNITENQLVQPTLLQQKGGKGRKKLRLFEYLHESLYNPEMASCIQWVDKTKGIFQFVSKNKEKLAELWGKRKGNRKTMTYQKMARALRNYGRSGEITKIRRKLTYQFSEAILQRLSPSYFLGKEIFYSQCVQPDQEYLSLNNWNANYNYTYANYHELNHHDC

[4] = biological target: T4, ETS2 (UniProt P15036)
T4 sequence: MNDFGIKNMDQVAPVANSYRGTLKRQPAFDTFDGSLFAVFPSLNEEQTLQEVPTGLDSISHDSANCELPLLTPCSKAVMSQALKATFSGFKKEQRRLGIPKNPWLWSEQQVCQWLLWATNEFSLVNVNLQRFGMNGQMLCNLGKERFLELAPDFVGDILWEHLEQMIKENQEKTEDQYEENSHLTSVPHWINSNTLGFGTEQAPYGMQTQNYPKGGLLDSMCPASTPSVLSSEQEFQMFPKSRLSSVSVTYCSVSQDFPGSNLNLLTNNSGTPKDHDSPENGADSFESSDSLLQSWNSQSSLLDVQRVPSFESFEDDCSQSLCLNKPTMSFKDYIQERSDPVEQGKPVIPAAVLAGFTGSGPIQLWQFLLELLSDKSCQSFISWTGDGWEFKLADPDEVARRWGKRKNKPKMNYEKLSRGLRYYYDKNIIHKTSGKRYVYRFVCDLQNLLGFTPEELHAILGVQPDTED

[5] = biological target: T5, ETV3 (UniProt P41162-2)
T5 sequence: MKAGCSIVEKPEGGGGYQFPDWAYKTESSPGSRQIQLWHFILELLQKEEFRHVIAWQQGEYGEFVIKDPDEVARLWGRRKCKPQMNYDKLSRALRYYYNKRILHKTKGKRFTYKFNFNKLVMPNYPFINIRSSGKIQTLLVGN

Row | Sequence | binding signal [1] | binding signal [2] | binding signal [3] | binding signal [4] | binding signal [5]
1 | TAGAGA | 0.814 | 0.837 | 0.854 | 0.789 | 0.814
2 | CCGTTA | 0.97 | 0.905 | 0.987 | 0.966 | 0.961
3 | GTCACC | 0.963 | 0.91 | 0.914 | 0.902 | 0.877
4 | TAGCGC | 0.966 | 0.793 | 0.846 | 0.956 | 0.908
5 | TCGTTG | 0.867 | 0.862 | 0.797 | 0.934 | 0.921
6 | GCGAAC | 0.942 | 0.861 | 0.984 | 0.931 | 0.976
7 | GAGAAA | 0.742 | 0.784 | 0.691 | 0.785 | 0.662
8 | GCGATT | 0.901 | 0.898 | 0.941 | 0.959 | 0.972
9 | ACTCAG | 0.998 | 0.969 | 1.11 | 0.97 | 0.95
10 | CGAAGT | 0.947 | 0.775 | 0.937 | 0.901 | 0.823
11 | CGAGTA | 0.847 | 0.858 | 0.877 | 0.803 | 0.817
12 | GGCTGC | 0.995 | 0.744 | 0.964 | 0.975 | 0.817
13 | CAGATA | 0.925 | 0.824 | 0.925 | 0.947 | 0.922
14 | GCAGGT | 0.916 | 0.928 | 0.771 | 0.893 | 0.958
15 | CGTCGA | 0.922 | 0.955 | 0.799 | 0.96 | 0.82
16 | GCGTTA | 0.928 | 1.09 | 0.813 | 0.93 | 0.905
17 | GGTTAA | 0.897 | 0.91 | 0.897 | 0.906 | 0.911
18 | GTGACT | 0.952 | 0.902 | 0.875 | 0.945 | 0.879
19 | GCAAAG | 0.919 | 0.964 | 0.722 | 0.878 | 0.938
20 | GCGAAG | 0.91 | 0.932 | 0.966 | 0.863 | 0.857

Row | Sequence | binding signal [1] | binding signal [2] | binding signal [3] | binding signal [4] | binding signal [5]
21 | ACCAAG | 0.912 | 0.914 | 0.897 | 0.946 | 0.879
22 | TCGAAA | 0.959 | 0.939 | 1.06 | 0.939 | 0.883
23 | CATTGA | 1.05 | 0.898 | 0.896 | 0.963 | 0.938
24 | CGAGAT | 0.918 | 0.838 | 0.861 | 0.863 | 0.859
25 | CAGAAA | 0.932 | 0.943 | 0.97 | 0.961 | 0.931
26 | GACCCC | 0.951 | 0.906 | 0.841 | 0.893 | 0.926
27 | CGAGGT | 0.879 | 0.929 | 0.833 | 0.974 | 0.975
28 | AGCCCA | 0.959 | 0.957 | 0.918 | 0.945 | 0.898
29 | GAAGAT | 0.961 | 0.855 | 0.888 | 0.977 | 0.921
30 | CATAGA | 0.9 | 0.933 | 0.973 | 0.952 | 0.889
31 | AGTTGC | 0.994 | 1.03 | 0.894 | 0.957 | 0.986
32 | AGTACC | 0.932 | 0.907 | 0.975 | 0.93 | 0.907
33 | TGCGGT | 0.942 | 0.862 | 0.91 | 0.89 | 
34 | GAAACC | 0.986 | 0.984 | 0.973 | 0.981 | 
35 | TAAGGG | 0.897 | 1.04 | 1.18 | 1 | 0.938
36 | CCAGAT | 0.806 | 0.941 | 0.838 | 0.907 | 0.871
37 | AGGATA | 0.989 | 0.882 | 0.976 | 0.974 | 
38 | GTCCGG | 0.923 | 0.803 | 0.865 | 0.944 | 
39 | AGTTTT | 0.997 | 1.14 | 0.916 | 0.974 | 
40 | GCGGCT | 0.93 | 0.965 | 0.977 | 0.975 | 

Reformatted with tabs: entries from further up.
Row	Sequence	binding signal [1]	binding signal [2]	binding signal [3]	binding signal [4]	binding signal [5]
3	GTCACC	0.963	0.91	0.914	0.902	0.877
13	CAGATA	0.925	0.824	0.925	0.947	0.922
32	AGTACC	0.932	0.907	0.975	0.93	0.907

Next part:

Row | Sequence | binding signal [1] | binding signal [2] | binding signal [3] | binding signal [4] | binding signal [5]
41 | GTGTCC | 1.07 | 1.05 | 1.2 | 1.16 | 
42 | ACCGTT | 0.923 | 0.988 | 0.947 | 0.996 | 
43 | GTAATT | 1.1 | 1.29 | 1.21 | 1.28 | 
44 | AGCTGT | 0.941 | 0.925 | 1.15 | 0.926 | 
45 | CAAGCC | 0.922 | 1.06 | 0.686 | 0.905 | 
46 | TGTTGC | 1.32 | 1.4 | 1.17 | 1.3 | 
47 | AGAATC | 0.879 | 0.97 | 0.85 | 0.957 | 0.9
48 | ACGCCG | 1.11 | 1.11 | 0.876 | 1.01 | 
49 | ATCGCG | 0.892 | 0.891 | 0.889 | 0.926 | 0.912
50 | CGGATT | 0.924 | 0.947 | 0.973 | 0.94 | 
51 | GGTATC | 1.07 | 0.971 | 0.934 | 1.01 | 
52 | GTAGCG | 0.94 | 0.829 | 0.873 | 0.905 | 
53 | TCAGTA | 0.953 | 0.932 | 0.973 | 0.978 | 
54 | GTGGAA | 0.931 | 0.929 | 1.02 | 0.952 | 
55 | CCAAAG | 0.997 | 0.915 | 0.95 | 0.836 | 0.89
56 | CACGGA | 0.967 | 0.995 | 1.06 | 0.984 | 
57 | GTCCAA | 0.944 | 0.916 | 0.88 | 0.998 | 
58 | TTAGAG | 0.894 | 0.877 | 0.886 | 0.85 | 0.91
